Record: PubChem BioAssay AID1224830 (NIAID, 2016)

- Purpose: 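Host factors that control LPS-induced TNF expression in human macrophages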 (primary screen)
- System: human THP-1 monocytic leukaemia cells, TNF dual-luciferase reporter clone, PMA-differentiated to macrophage-like cells
- Reagents: siRNA pool against human genes, 50 nM
- Timing: LPS for 4 h, given about 3 days after siRNA transfection
- Conditions: bacterial LPS (TLR4 ligand), 10 ng/ml
- Measured: 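TNF firefly reporter luminescence divided by renilla, normalised to the plate median, then turned into a robust z-score for each replicate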
- Scale: TNF reporter robust z-score: higher = stronger TNF reporter response to LPS
- Rule for the call: 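Each well counts as active if its z-score is over 2.8 or under -1.5; controls are left without a call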
The deposit covers about 18,000 reagents; this is an unselected part. About 2,900 of them (16%) count as active. 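Calls are made per well; low scores hint the gene aids the LPS response, high scores that it dampens it.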 A number with no mark means an inactive call. The numbers tell different reagents against one gene apart. Repeated entries: four replicate wells of each siRNA pool. No sequences are given here.

no.	gene	reagent	TNF reporter robust z-score
1	RNF222 (ring finger protein 222)	1	0.8
2	RNF222 (ring finger protein 222)	1	1.25
3	RNF222 (ring finger protein 222)	1	0.16
4	RNF222 (ring finger protein 222)	1	1.4
5	FST (follistatin)	1	-0.48
6	FST (follistatin)	1	0.14
7	FST (follistatin)	1	0.29
8	FST (follistatin)	1	0.04
9	TRNT1 (tRNA nucleotidyl transferase 1)	1	-0.89
10	TRNT1 (tRNA nucleotidyl transferase 1)	1	-0.33
11	TRNT1 (tRNA nucleotidyl transferase 1)	1	0.03
12	TRNT1 (tRNA nucleotidyl transferase 1)	1	-0.91
13	DEFB110 (defensin beta 110)	1	0.5
14	DEFB110 (defensin beta 110)	1	2.1
15	DEFB110 (defensin beta 110)	1	1.75
16	DEFB110 (defensin beta 110)	1	2.53
17	DEFB110 (defensin beta 110)	2	3.27 (active)
18	DEFB110 (defensin beta 110)	2	4.04 (active)
19	DEFB110 (defensin beta 110)	2	2.82 (active)
20	DEFB110 (defensin beta 110)	2	1.14
21	CRNKL1 (crooked neck pre-mRNA splicing factor 1)	1	1.18
22	CRNKL1 (crooked neck pre-mRNA splicing factor 1)	1	0.6
23	CRNKL1 (crooked neck pre-mRNA splicing factor 1)	1	1.35
24	CRNKL1 (crooked neck pre-mRNA splicing factor 1)	1	-0.01
25	PNPLA1 (patatin like domain 1, omega-hydroxyceramide transacylase)	1	-0.38
26	PNPLA1 (patatin like domain 1, omega-hydroxyceramide transacylase)	1	-0.2
27	PNPLA1 (patatin like domain 1, omega-hydroxyceramide transacylase)	1	-0.02
28	PNPLA1 (patatin like domain 1, omega-hydroxyceramide transacylase)	1	1.26
29	PXK (PX domain containing serine/threonine kinase like)	1	-0.86
30	PXK (PX domain containing serine/threonine kinase like)	1	0.56
31	PXK (PX domain containing serine/threonine kinase like)	1	-1.45
32	C22orf23 (chromosome 22 open reading frame 23)	1	0.04
33	C22orf23 (chromosome 22 open reading frame 23)	1	0.87
34	C22orf23 (chromosome 22 open reading frame 23)	1	0.43
35	C22orf23 (chromosome 22 open reading frame 23)	1	1.35
36	SYTL3 (synaptotagmin like 3)	1	0.7
37	SYTL3 (synaptotagmin like 3)	1	-0.18
38	SYTL3 (synaptotagmin like 3)	1	-0.83
39	SYTL3 (synaptotagmin like 3)	1	1.03
40	CHRNA7 (cholinergic receptor nicotinic alpha 7 subunit)	1	-1.19
41	CHRNA7 (cholinergic receptor nicotinic alpha 7 subunit)	1	0.01
42	CHRNA7 (cholinergic receptor nicotinic alpha 7 subunit)	1	0.22
43	CHRNA7 (cholinergic receptor nicotinic alpha 7 subunit)	1	-0.33
44	TEX101 (testis expressed 101)	1	-0.13
45	TEX101 (testis expressed 101)	1	1.48
46	TEX101 (testis expressed 101)	1	-0.28
47	TEX101 (testis expressed 101)	1	-0.14
48	SAMD15 (sterile alpha motif domain containing 15)	1	0.92
49	SAMD15 (sterile alpha motif domain containing 15)	1	-0.26
50	SAMD15 (sterile alpha motif domain containing 15)	1	-0.28
51	SAMD15 (sterile alpha motif domain containing 15)	1	-0.8
52	MYL10 (myosin light chain 10)	1	0.74
53	MYL10 (myosin light chain 10)	1	0.61
54	MYL10 (myosin light chain 10)	1	0.08
55	CNR2 (cannabinoid receptor 2)	1	2.43
56	CNR2 (cannabinoid receptor 2)	1	2.42
57	CNR2 (cannabinoid receptor 2)	1	2.1
58	CNR2 (cannabinoid receptor 2)	1	4.17 (active)
59	FUS (FUS DNA/RNA binding protein)	1	0.05
60	FUS (FUS DNA/RNA binding protein)	1	-0.02
61	FUS (FUS DNA/RNA binding protein)	1	-0.45
62	FUS (FUS DNA/RNA binding protein)	1	0.51
63	GLIS2 (GLIS family zinc finger 2)	1	0.06
64	GLIS2 (GLIS family zinc finger 2)	1	0.09
65	GLIS2 (GLIS family zinc finger 2)	1	-0.14
66	GLIS2 (GLIS family zinc finger 2)	1	0.36
67	PDIA6 (protein disulfide isomerase family A member 6)	1	-0.58
68	PDIA6 (protein disulfide isomerase family A member 6)	1	-0.63
69	PDIA6 (protein disulfide isomerase family A member 6)	1	-1.03
70	PDIA6 (protein disulfide isomerase family A member 6)	1	-0.11
71	UGT8 (UDP glycosyltransferase 8)	1	0.88
72	UGT8 (UDP glycosyltransferase 8)	1	1.17
73	UGT8 (UDP glycosyltransferase 8)	1	0.22
74	UGT8 (UDP glycosyltransferase 8)	1	0.76
75	MBP (myelin basic protein)	1	-1.12
76	MBP (myelin basic protein)	1	-1.26
77	MBP (myelin basic protein)	1	-1.8 (active)
78	MBP (myelin basic protein)	1	-1.91 (active)
79	TMEM135 (transmembrane protein 135)	1	-0.02
80	TMEM135 (transmembrane protein 135)	1	3.14 (active)
81	TMEM135 (transmembrane protein 135)	1	0
82	TMEM135 (transmembrane protein 135)	1	0.8
83	MAN2B2 (mannosidase alpha class 2B member 2)	1	0.2
84	MAN2B2 (mannosidase alpha class 2B member 2)	1	0.7
85	MAN2B2 (mannosidase alpha class 2B member 2)	1	0.98
86	MAN2B2 (mannosidase alpha class 2B member 2)	1	0.32
87	SLC12A4	1	-0.88
88	SLC12A4	1	0.11
89	SLC12A4	1	-0.24
90	SLC12A4	1	0.46
91	ITGBL1 (integrin subunit beta like 1)	1	2.05
92	ITGBL1 (integrin subunit beta like 1)	1	0.6
93	ITGBL1 (integrin subunit beta like 1)	1	1.61
94	ITGBL1 (integrin subunit beta like 1)	1	2.44
95	KLF17 (KLF transcription factor 17)	1	0.17
96	KLF17 (KLF transcription factor 17)	1	4.32 (active)
97	KLF17 (KLF transcription factor 17)	1	1.86
98	KLF17 (KLF transcription factor 17)	1	0.29
99	PDGFA (platelet derived growth factor subunit A)	1	-0.65
100	PDGFA (platelet derived growth factor subunit A)	1	-0.88
101	PDGFA (platelet derived growth factor subunit A)	1	-0.05
102	PDGFA (platelet derived growth factor subunit A)	1	0.21
103	PDZRN3 (PDZ domain containing ring finger 3)	1	-0.36
104	PDZRN3 (PDZ domain containing ring finger 3)	1	0.56
105	PDZRN3 (PDZ domain containing ring finger 3)	1	1.09
106	PDZRN3 (PDZ domain containing ring finger 3)	1	0.7
107	TNN (tenascin N)	1	-1.29
108	TNN (tenascin N)	1	-0.56
109	TNN (tenascin N)	1	-0.85
110	TNN (tenascin N)	1	-1.36
